Binding data for two molecules are collected here from article PMC5691054, “An unexpected protein interaction promotes drug resistance in leukemia” (Nature Communications, 2017).

Results are given in words; binding and its absence hold for the method and conditions named. For part of these data: Binding can be weak; no strength is given. For part of these data: Sequences can lack the tags named with a protein. For part of these data: In cells and extracts the contact can be indirect.

Experiment [1] deals with GST-ABCC4-C100 (purified C terminus of ABCC4, 100 amino acids) (human). Kind of experiment: pull-down; competition: TAT-ABCC4 peptides (1–4 μM) mixed with GST-ABCC4-C100 (50 nM) before addition of His-S-MPP1 (3.6 nM), 2 h at 24 °C; GST-ABCC4-C100 immobilized on glutathione beads, washed 3 times; immunoblot with rabbit anti-MPP1; both purified. In general terms: Immunoblotting shows a protein as a band on a membrane.

In experiment [2] the target is ABCC4ΔC (ABCC4 lacking the PDZ motif), pAcGFP-tagged (human). Kind of experiment: co-IP; cells co-transfected with MPP1 and GFP-ABCC4 or GFP-ABCC4ΔC; immunoprecipitation with GFP-TRAP; blot with anti-MPP1.
For experiment [3] the target is unchanged. Nature of the experiment: proximity ligation; HEK293 cells transfected with ABCC4 or ABCC4ΔC and MPP1, fixed and permeabilized; anti-ABCC4 and anti-MPP1 antibodies, Duolink kit.

B1: His-S-MPP1 fusion protein (full-length MPP1) (protein, UniProt Q00013 1-466)
chain: MTLKASEGESGGSMHTALSDLYLEHLLQKRSRPEAVSHPLNTVTEDMYTNGSPAPGSPAQVKGQEVRKVRLIQFEKVTEEPMGITLKLNEKQSCTVARILHGGMIHRQGSLHVGDEILEINGTNVTNHSVDQLQKAMKETKGMISLKVIPNQQSRLPALQMFMRAQFDYDPKKDNLIPCKEAGLKFATGDIIQIINKDDSNWWQGRVEGSSKESAGLIPSPELQEWRVASMAQSAPSEAPSCSPFGKKKKYKDKYLAKHSSIFDQLDVVSYEEVVRLPAFKRKTLVLIGASGVGRSHIKNALLSQNPEKFVYPVPYTTRPPRKSEEDGKEYHFISTEEMTRNISANEFLEFGSYQGNMFGTKFETVHQIHKQNKIAILDIEPQTLKIVRTAELSPFIVFIAPTDQGTQTEALQQLQKDSEAIRSQYAHYFDLSLVNNGVDETLKKLQEAFDQACSSPQWVPVSWVY
Regarding B1, the binding entry in experiment [1] was “binds”.

B2: MPP1 expressed from an expression vector in HEK293 cells (protein, UniProt Q00013 1-466)
chain: B1 chain
For the molecule B2, the binding entry in experiment [2] and in experiment [3] was “no binding” throughout.
